Data: article PMC8032903

Sequences of proteins named here, by UniProt entry; tags and fusion partners are left off. A change or cut given only in a name is not applied to a line headed by its entry.
UniProt P11308: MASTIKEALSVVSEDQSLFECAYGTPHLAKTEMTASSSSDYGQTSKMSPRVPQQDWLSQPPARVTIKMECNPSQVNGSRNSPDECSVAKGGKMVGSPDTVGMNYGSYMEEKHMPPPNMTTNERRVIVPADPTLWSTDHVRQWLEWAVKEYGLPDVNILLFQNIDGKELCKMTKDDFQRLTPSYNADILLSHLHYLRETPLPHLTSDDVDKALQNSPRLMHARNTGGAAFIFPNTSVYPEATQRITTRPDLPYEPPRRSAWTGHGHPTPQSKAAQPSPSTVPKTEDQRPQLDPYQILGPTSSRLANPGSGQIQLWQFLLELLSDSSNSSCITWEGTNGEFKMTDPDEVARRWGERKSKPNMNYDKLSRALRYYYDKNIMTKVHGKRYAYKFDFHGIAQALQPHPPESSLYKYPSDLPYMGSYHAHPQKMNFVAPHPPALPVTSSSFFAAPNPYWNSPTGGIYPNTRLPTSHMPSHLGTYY

Biological target: Flag-ERG (ETS-related gene) (UniProt P11308)
Test: co-IP; Flag-ERG and PIAS plasmids co-transfected into HEK293T cells; lysates immunoprecipitated with anti-Flag antibody (protein A agarose), blotted with anti-HA

binding: binds
B1: PIAS4 (enzyme, UniProt Q8N2W9 1-510)
chain: MAAELVEAKNMVMSFRVSDLQMLLGFVGRSKSGLKHELVTRALQLVQFDCSPELFKKIKELYETRYAKKNSEPAPQPHRPLDPLTMHSTYDRAGAVPRTPLAGPNIDYPVLYGKYLNGLGRLPAKTLKPEVRLVKLPFFNMLDELLKPTELVPQNNEKLQESPCIFALTPRQVELIRNSRELQPGVKAVQVVLRICYSDTSCPQEDQYPPNIAVKVNHSYCSVPGYYPSNKPGVEPKRPCRPINLTHLMYLSSATNRITVTWGNYGKSYSVALYLVRQLTSSELLQRLKTIGVKHPELCKALVKEKLRLDPDSEIATTGVRVSLICPLVKMRLSVPCRAETCAHLQCFDAVFYLQMNEKKPTWMCPVCDKPAPYDQLIIDGLLSKILSECEDADEIEYLVDGSWCPIRAEKERSCSPQGAILVLGPSDANGLLPAPSVNGSGALGSTGGGGPVGSMENGKPGADVVDLTLDSSSSSEDEEEEEEEEEDEDEEGPRPKRRCPFQKGLVPAC

No constants are given. Whether binding was seen depends on the method and setting. Binding seen in cells or lysates may run through a third protein. A result given as binding can be weak or reduced; the word gives no strength.
